The record followed here is publication PMC12040169 (PLOS Biology, 2025).

SMILES strings stand for the structures. Some of the results follow.

For the test, the system named is T1, CTL2-GFP (C. trachomatis L2/434/Bu, GFP-expressing).
T1 construct: L2/434/Bu, GFP-expressing
On the set-up: species or system HeLa; Intracellular C. trachomatis growth in HeLa cells, bulk GFP fluorescence relative to DMSO. As to conditions: bulk GFP, single well; 28.5 h, 10 µM; inhibitor.
Take `Cc1ccc(-n2ncc3c(NCCc4ccc(S(N)(=O)=O)cc4)ncnc32)c(C)c1` [CBK265676]: the “% of control remaining” value is 121.195%.

Turning to `CCC1CCCCN1C(=O)c1ccc(NC2CC2)nc1` (centres unmarked) [CBK304815], the “% of control remaining” value was 93.438%.

In the case of `CCCCc1ccc(S(=O)(=O)n2ccc3c(N4CCNCC4)cccc32)cc1` [CBK003744C], the “% of control remaining” value is given as 119.19%.

For `CN1CCN(c2ccc(NC(=O)c3cc([N+](=O)[O-])ccc3N3CCOCC3)cc2)CC1` [CBK269425], the “% of control remaining” value came to 157.97%.

Regarding `COC(=O)c1c(NC(=S)NCCn2cc(Br)cn2)sc2c1CCC2` [CBK266905], the “% of control remaining” value is reported as 168.9%.

As to `CCOC(=O)CN(C)Cc1ccccc1Br` [CBK261891], the “% of control remaining” value was 115.051%.

Consider `O=C1c2ccccc2C(=O)N1CCCc1nc2c3c4c(sc3ncn2n1)CCCCC4` [CBK268540], for which the “% of control remaining” value amounted to 140.475%.

As to `NC(=O)CN1CCC2(CCN(C(=O)c3cc(F)c(F)cc3F)C2)C1` (centres unmarked) [CBK132140], the “% of control remaining” value is recorded as 144.359%.

In the case of `O=P(O)(CCc1ccncc1)CN1CCCCC1` [CBK262323], the “% of control remaining” value stood at 100.721%.

As to `COC(=O)CCc1ccc(S(=O)(=O)N2CCCN(Cc3cccc4c3OCO4)CC2)cc1` [CBK062993], the “% of control remaining” value is 136.371%.

In the case of `CC(C)c1ccc(NC(=O)O[C@@H]2CO[C@H]3[C@@H]2OC[C@@H]3NC(=O)C2CC2)cc1` [CBK289471], the “% of control remaining” value was 128.316%.

`O=C(Nc1ccc(NC(=O)c2ccccc2O)cc1)c1cnc(-c2ccccc2)c(-c2ccncc2)c1` [CBK037490]: the “% of control remaining” value was found to be 91.655%.

Take `Cc1cc(C)n(-c2ccc(C(=O)NCC3(C)COC3)cc2)n1` [CBK281756]: the “% of control remaining” value was 124.448%.

For the compound `Cc1cccc(OCCCn2cncc2-c2cnn(C)c2)c1` [CBK281763], the “% of control remaining” value was found to be 145.637%.

On to `O=C(O)c1ccc(C(=O)NC2CCN(CC(F)(F)F)C2=O)s1` (centres unmarked) [CBK305524], for which the “% of control remaining” value worked out at 135.9%.

On to `c1cn(CC2(Cn3ccnc3)COC2)cn1` [CBK021839], for which the “% of control remaining” value is reported as 123.179%.

On to `CCNc1nc(-c2ccc3[nH]ccc3c2)cn2ccnc12` [CBK038002], for which the “% of control remaining” value is listed as 139.746%.

In the case of `CC1CCN(S(=O)(=O)c2ccc(NC(=O)c3ccc(Br)o3)cc2)CC1` [CBK264536], the “% of control remaining” value was found to be 113.845%.

`O=C(CSc1ncnc2ccccc12)Nc1nc2ccccc2s1` [CBK287510]: the “% of control remaining” value stood at 115.904%.

As for `COc1ccc(C(=O)N2CCC3(CCCN(C(=O)Cn4cc(C)c(=O)[nH]c4=O)C3)C2)cc1OC` (centres unmarked) [CBK137085], the “% of control remaining” value was 76.835%.

In the case of `CN1CCN(C(=O)C2CCN(S(=O)(=O)c3ccc4ccccc4c3)CC2)CC1` [CBK269504], the “% of control remaining” value came to 164.141%.

Take `O=C(CN(c1ccc(Cl)cc1)S(=O)(=O)c1ccccc1)Nc1ccc2ccccc2c1` [CBK263776]: the “% of control remaining” value was 88.1765%.

For the compound `O=C(C1CCCCC1)N1CCC(c2nnc3n2CCCCC3)CC1` [CBK284613], the “% of control remaining” value is 147.477%.

Regarding `Cc1ncsc1CCOc1cc(N2CCCC2)ncn1` [CBK115895], the “% of control remaining” value was determined as 122.189%.

`N#Cc1c(SCC(=O)N2CCc3ccccc3C2)nsc1SCC(=O)N1CCc2ccccc2C1` [CBK267453]: the “% of control remaining” value is on record as 121.001%.

In the case of `O=C(O)COc1ccccc1/C=N\N1CCN(c2ccccn2)CC1` [CBK262916], the “% of control remaining” value came to 99.7866%.

As to `O=C(c1cccc(F)c1)N1CCC(O)(c2cccnc2F)CC1` [CBK284357], the “% of control remaining” value came to 110.696%.

`COc1ccc2c(c1)CCN=C2C[C@H]1CN(C(=O)C(C)(C)C)CC[C@H]1CC(=O)O` [CBK289155]: the “% of control remaining” value is on record as 114.31%.

`CCn1c2ccccc2c2cc(CN3CCN(c4ccccc4OC)CC3)ccc21` [CBK261579]: the “% of control remaining” value was determined as 116.012%.

As to `C(=N\N1CCOCC1)/c1cccs1` [CBK027942], the “% of control remaining” value is on record as 151.636%.

Consider `CCN1CCN(C(=O)C2CC=CCC2C(=O)O)CC1` (centres unmarked) [CBK270295], for which the “% of control remaining” value was 128.428%.

On to `Cc1c(Cl)cccc1NC(=O)CSCc1cc(O)[nH]n1` [CBK268199], for which the “% of control remaining” value came out at 117.053%.

Consider `CCC(=O)Nc1nc(-c2ccc(C(=O)OC)cc2)nc2c1c(=O)oc1ccccc12` [CBK268449], for which the “% of control remaining” value was determined as 133.994%.

In the case of `CC1CN(S(=O)(=O)c2ccc(NC(=O)c3nc(SCc4ccccc4)ncc3Cl)cc2)CC(C)O1` (centres unmarked) [CBK268930], the “% of control remaining” value came to 71.1%.

In the case of `COc1ccc([C@H]2CN(C(=O)c3ccccc3)[C@@H]3CCN(Cc4cccc(F)c4)C[C@H]23)cc1` [CBK285584], the “% of control remaining” value is 85.1677%.

As to `COc1ccc(N2CCN(c3c(C)c(C)nc4cc(-c5nccn5C)nn34)CC2)cc1` [CBK286178], the “% of control remaining” value was 131.758%.

As for `O=C(NCc1cccc(C(F)(F)F)c1)c1cnc(-c2ccccc2)c(-c2ccco2)c1` [CBK036667], the “% of control remaining” value is given as 153.008%.

For the compound `Cn1ccnc1CN1CCCN(C(=O)c2cccc(C#N)c2)CC1` [CBK303998], the “% of control remaining” value is recorded as 101.469%.

For the compound `CCCNC(=O)Cn1nc(C)n2c(cc3sccc32)c1=O` [CBK284020], the “% of control remaining” value was determined as 142.756%.

Turning to `O=[N+]([O-])c1cc(S(=O)(=O)Nc2nnc(C(F)(F)F)s2)ccc1Cl` [CBK062021], the “% of control remaining” value was 94.8886%.

Turning to `O=c1c(-c2ccccc2)c(C(F)(F)F)oc2c(CN3CCN(Cc4ccccc4)CC3)c(O)ccc12` [CBK265808], the “% of control remaining” value is on record as 120.896%.

Turning to `Cc1[nH]c2cc(C(=O)O)ccc2c1CC(=O)O` [CBK269955], the “% of control remaining” value is reported as 102.454%.

For the compound `COC(=O)c1cccc(C(=O)Nc2ncc(-c3ccccc3)s2)c1` [CBK298294], the “% of control remaining” value worked out at 165.92%.

On to `CCN1CCN(c2c(Cl)cccc2NC(=O)CSc2ccc(Cl)cc2)CC1` [CBK267606], for which the “% of control remaining” value is on record as 133.006%.

Take `O=C(NS(=O)(=O)c1cccc(-c2nnco2)c1)C1C2C3CCC(C3)C12` (centres unmarked) [CBK306488]: the “% of control remaining” value came to 142.415%.

As for `Cc1cc2ccnc(Cl)c2n1CC1(O)CC2CCC(C1)N2` (centres unmarked) [CBK284980], the “% of control remaining” value was 137.966%.

With `NC(=O)COc1ccc(CNc2ccc(Oc3ccccc3)cc2)cc1Cl` [CBK269584], the “% of control remaining” value is 140.281%.

As to `CNCC(=O)N1CCC2(CCCC[C@H]3CN(C(C)=O)CC[C@H]3NC(=O)CNC2=O)CC1` [CBK292181], the “% of control remaining” value is 129.52%.

Turning to `Cc1nc(S(=O)(=O)CCn2cccn2)n(C2CCCC2)c1C` [CBK305138], the “% of control remaining” value is on record as 114.699%.

Turning to `Cc1ccc2c(c1)N(CCO)/C(=C/c1sc3ccccc3[n+]1CCCS(=O)(=O)[O-])S2` [CBK293965], the “% of control remaining” value came to 104.129%.

For the compound `COc1ccc(-c2nnc3ccc(SCC(=O)N4CCCC4)nn23)cc1OC` [CBK287527], the “% of control remaining” value is 133.884%.

Turning to `Cc1ccc(S(=O)(=O)NC[C@H]2CC[C@H](C(=O)O)CC2)cc1` [CBK286706], the “% of control remaining” value is recorded as 101.919%.

Regarding `NC(=O)c1c(NC(=O)/C=C/c2c(F)cccc2Cl)sc2c1CCCCCC2` [CBK262631], the “% of control remaining” value was 100%.

In the case of `CCN(CC)C(=O)C1CCCN(C(=O)NCCOC)C1` (centres unmarked) [CBK156129], the “% of control remaining” value is reported as 94.9404%.

`COc1ccc(CN2CCNC(=O)C2CC(=O)O)cc1OC` (centres unmarked) [CBK269991]: the “% of control remaining” value came to 124.088%.

Take `CC(=O)NCCn1cc2c(n1)[C@H]1CN(C(=O)C(C)(C)C)C[C@H]1CC2` [CBK282168]: the “% of control remaining” value is recorded as 160.813%.

As for `O=c1c2ccccc2nc2n1CCN(Cc1ccc(F)cc1)CC2` [CBK284814], the “% of control remaining” value turned out to be 120.813%.

Consider `CC(=O)N1C[C@H]2CCCN(S(=O)(=O)c3ccc(Cl)s3)[C@H]2C1` [CBK285293], for which the “% of control remaining” value is recorded as 112.359%.

With `Cc1cccc(C(=O)Oc2ccc(-n3ccnc3)cc2)c1` [CBK090137], the “% of control remaining” value is reported as 100.277%.

`O=c1cc2ncc(-c3ccncc3)cn2[nH]1` [CBK011300]: the “% of control remaining” value is 116.118%.

As for `Cc1cccc(NC(=O)c2cnc3scc(C)n3c2=O)c1` [CBK287453], the “% of control remaining” value stood at 111.9%.

Regarding `Cc1ccccc1NC(=O)N1CCC2(CC1)NCCc1c2[nH]c2ccc(O)cc12` [CBK046904], the “% of control remaining” value is listed as 154.22%.

In the case of `COc1ccccc1CN(CCCn1ccnc1)Cc1cccn1C` [CBK283160], the “% of control remaining” value is 114.19%.

`Cc1nc2ccc(NC(=O)CC(c3ccccc3)c3ccccc3)cc2s1` [CBK293988]: the “% of control remaining” value was 169.13%.

In the case of `O=C(Cn1nnc(-c2ccccc2)n1)Nc1ccccc1C(=O)O` [CBK264358], the “% of control remaining” value is listed as 125.806%.

Consider `O=S(=O)(c1ccc(-c2csc(-c3cccnc3)n2)cc1)N1CCCCCC1` [CBK265502], for which the “% of control remaining” value was found to be 83.7738%.

Regarding `CC(C)(C)OC(=O)N1CCCC(C(=O)NC2CCCc3ccccc32)C1` (centres unmarked) [CBK305617], the “% of control remaining” value turned out to be 96.4408%.

Turning to `O=C(Cc1ccc(F)cc1Cl)N1CCn2c(nnc2C2CC2)C1` [CBK283773], the “% of control remaining” value is reported as 116.998%.

In the case of `O=C(O)c1cn(C2CC2)c2cc(N3CCN(C(=O)Cc4ccccc4Cl)CC3)c(F)cc2c1=O` [CBK297136], the “% of control remaining” value is reported as 38.5475%.

On to `O=C(CCCCCN1C(=O)c2ccccc2C1=O)NO` [CBK288514], for which the “% of control remaining” value is recorded as 121.327%.

As to `COc1cc(CNc2ccc(N3CCCCC3)cc2)cc(Cl)c1OCc1cccs1` [CBK074586], the “% of control remaining” value stood at 75.8316%.

Turning to `O=C(O)CCC(=O)N1CCCC2(CCN(C(=O)Cc3c[nH]c4ccccc34)C2)C1` (centres unmarked) [CBK131572], the “% of control remaining” value was 115.07%.

On to `Cc1ccc(-c2nccnc2OCCOc2ccccc2)c(C)c1` [CBK106991], for which the “% of control remaining” value was 103.405%.

In the case of `Cc1ccc(C)c(NC(=O)CN(Cc2ccc(Cl)c(Cl)c2)S(=O)(=O)c2ccccc2)c1` [CBK264191], the “% of control remaining” value worked out at 98.1417%.

With `N#Cc1ccc(N2CCCC(N3CCNC3=O)C2)c(C(F)(F)F)c1` (centres unmarked) [CBK305162], the “% of control remaining” value is 108.501%.

Take `Cc1ccc2[nH]c(SCc3nc4ccccc4c(=O)[nH]3)nc2c1` [CBK269908]: the “% of control remaining” value worked out at 150.086%.

Take `O=C(NC1(c2ccccc2)CCCC1)c1ccc(=O)n(CC(=O)N2CCCCC2)c1` [CBK285631]: the “% of control remaining” value came to 124.661%.
